Measured values: article PMC9585242
Like-named read-outs stand apart in the source and are kept apart here. Results are given in words; binding and its absence hold for the method and conditions named. In cells and extracts the contact can be indirect. These calls come from enrichment with a bait or labelling near it, and not all partners need be listed. For part of these data: A no says only that the protein was not detected with the bait. Values belong to the molecule of their own block, whether it stands above or below them.

By UniProt entry, the sequences of proteins in these tests, tags left out. Where a name states a change or a piece, a line headed by the entry shows the natural chain unless it says otherwise.
UniProt Q383A4: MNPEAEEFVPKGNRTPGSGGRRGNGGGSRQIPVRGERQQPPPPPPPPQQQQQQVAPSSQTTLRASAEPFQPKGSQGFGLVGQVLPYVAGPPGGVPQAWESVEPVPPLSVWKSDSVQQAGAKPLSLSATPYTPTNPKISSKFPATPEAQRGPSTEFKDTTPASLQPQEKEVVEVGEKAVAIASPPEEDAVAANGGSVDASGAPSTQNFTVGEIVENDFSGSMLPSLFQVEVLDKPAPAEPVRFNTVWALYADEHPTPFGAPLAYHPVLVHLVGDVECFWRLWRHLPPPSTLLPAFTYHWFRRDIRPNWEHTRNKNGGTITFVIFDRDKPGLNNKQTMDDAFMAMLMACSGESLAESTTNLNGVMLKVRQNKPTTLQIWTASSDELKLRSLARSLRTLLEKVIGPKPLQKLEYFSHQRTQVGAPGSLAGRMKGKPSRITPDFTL
UniProt Q585M4: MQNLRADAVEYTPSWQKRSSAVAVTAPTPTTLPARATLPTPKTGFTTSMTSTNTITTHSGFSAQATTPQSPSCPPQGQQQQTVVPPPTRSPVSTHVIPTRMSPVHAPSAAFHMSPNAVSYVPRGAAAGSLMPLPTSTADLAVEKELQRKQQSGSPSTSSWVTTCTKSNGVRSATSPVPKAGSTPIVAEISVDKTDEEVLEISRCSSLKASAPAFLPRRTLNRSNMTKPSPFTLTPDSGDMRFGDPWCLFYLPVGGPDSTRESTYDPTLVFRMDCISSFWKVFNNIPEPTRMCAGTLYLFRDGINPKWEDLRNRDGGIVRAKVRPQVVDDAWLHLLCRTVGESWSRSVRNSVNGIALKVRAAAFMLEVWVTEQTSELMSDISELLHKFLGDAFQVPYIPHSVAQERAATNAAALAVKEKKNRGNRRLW
UniProt Q57UX0: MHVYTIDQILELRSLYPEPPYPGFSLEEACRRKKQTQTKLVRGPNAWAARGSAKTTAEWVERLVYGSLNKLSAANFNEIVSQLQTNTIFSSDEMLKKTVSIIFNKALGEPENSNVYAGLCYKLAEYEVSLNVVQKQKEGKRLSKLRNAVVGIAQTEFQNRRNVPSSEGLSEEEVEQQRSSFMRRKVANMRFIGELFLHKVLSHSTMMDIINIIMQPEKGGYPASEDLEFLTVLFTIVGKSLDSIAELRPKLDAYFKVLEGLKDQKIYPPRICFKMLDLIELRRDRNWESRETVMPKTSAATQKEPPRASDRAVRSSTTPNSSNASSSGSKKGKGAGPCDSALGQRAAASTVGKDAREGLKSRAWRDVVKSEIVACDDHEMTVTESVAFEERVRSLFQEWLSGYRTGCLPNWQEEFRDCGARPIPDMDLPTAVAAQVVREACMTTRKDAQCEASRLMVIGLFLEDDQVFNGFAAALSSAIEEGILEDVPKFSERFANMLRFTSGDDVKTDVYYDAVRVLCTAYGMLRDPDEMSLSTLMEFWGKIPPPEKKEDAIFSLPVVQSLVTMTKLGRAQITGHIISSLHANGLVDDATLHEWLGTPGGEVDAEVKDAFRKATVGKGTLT
UniProt Q383M3: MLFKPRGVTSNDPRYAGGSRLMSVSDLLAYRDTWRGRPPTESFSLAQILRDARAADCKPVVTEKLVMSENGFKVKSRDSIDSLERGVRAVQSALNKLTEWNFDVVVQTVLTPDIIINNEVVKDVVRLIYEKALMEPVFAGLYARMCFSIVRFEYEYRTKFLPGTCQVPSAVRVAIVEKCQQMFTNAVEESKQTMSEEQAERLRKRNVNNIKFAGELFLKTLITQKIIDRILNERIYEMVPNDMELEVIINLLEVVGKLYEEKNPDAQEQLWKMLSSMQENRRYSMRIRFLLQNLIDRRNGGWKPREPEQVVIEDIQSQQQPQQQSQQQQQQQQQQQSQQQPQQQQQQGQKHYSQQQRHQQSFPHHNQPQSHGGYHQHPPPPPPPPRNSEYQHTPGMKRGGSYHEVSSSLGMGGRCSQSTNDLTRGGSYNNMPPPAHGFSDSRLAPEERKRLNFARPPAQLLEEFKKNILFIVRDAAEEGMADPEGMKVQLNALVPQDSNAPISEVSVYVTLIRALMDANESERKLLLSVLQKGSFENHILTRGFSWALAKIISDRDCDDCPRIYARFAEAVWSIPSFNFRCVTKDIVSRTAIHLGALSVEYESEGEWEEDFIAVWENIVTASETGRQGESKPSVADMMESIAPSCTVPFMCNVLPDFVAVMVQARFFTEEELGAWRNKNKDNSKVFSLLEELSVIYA
UniProt Q38C95: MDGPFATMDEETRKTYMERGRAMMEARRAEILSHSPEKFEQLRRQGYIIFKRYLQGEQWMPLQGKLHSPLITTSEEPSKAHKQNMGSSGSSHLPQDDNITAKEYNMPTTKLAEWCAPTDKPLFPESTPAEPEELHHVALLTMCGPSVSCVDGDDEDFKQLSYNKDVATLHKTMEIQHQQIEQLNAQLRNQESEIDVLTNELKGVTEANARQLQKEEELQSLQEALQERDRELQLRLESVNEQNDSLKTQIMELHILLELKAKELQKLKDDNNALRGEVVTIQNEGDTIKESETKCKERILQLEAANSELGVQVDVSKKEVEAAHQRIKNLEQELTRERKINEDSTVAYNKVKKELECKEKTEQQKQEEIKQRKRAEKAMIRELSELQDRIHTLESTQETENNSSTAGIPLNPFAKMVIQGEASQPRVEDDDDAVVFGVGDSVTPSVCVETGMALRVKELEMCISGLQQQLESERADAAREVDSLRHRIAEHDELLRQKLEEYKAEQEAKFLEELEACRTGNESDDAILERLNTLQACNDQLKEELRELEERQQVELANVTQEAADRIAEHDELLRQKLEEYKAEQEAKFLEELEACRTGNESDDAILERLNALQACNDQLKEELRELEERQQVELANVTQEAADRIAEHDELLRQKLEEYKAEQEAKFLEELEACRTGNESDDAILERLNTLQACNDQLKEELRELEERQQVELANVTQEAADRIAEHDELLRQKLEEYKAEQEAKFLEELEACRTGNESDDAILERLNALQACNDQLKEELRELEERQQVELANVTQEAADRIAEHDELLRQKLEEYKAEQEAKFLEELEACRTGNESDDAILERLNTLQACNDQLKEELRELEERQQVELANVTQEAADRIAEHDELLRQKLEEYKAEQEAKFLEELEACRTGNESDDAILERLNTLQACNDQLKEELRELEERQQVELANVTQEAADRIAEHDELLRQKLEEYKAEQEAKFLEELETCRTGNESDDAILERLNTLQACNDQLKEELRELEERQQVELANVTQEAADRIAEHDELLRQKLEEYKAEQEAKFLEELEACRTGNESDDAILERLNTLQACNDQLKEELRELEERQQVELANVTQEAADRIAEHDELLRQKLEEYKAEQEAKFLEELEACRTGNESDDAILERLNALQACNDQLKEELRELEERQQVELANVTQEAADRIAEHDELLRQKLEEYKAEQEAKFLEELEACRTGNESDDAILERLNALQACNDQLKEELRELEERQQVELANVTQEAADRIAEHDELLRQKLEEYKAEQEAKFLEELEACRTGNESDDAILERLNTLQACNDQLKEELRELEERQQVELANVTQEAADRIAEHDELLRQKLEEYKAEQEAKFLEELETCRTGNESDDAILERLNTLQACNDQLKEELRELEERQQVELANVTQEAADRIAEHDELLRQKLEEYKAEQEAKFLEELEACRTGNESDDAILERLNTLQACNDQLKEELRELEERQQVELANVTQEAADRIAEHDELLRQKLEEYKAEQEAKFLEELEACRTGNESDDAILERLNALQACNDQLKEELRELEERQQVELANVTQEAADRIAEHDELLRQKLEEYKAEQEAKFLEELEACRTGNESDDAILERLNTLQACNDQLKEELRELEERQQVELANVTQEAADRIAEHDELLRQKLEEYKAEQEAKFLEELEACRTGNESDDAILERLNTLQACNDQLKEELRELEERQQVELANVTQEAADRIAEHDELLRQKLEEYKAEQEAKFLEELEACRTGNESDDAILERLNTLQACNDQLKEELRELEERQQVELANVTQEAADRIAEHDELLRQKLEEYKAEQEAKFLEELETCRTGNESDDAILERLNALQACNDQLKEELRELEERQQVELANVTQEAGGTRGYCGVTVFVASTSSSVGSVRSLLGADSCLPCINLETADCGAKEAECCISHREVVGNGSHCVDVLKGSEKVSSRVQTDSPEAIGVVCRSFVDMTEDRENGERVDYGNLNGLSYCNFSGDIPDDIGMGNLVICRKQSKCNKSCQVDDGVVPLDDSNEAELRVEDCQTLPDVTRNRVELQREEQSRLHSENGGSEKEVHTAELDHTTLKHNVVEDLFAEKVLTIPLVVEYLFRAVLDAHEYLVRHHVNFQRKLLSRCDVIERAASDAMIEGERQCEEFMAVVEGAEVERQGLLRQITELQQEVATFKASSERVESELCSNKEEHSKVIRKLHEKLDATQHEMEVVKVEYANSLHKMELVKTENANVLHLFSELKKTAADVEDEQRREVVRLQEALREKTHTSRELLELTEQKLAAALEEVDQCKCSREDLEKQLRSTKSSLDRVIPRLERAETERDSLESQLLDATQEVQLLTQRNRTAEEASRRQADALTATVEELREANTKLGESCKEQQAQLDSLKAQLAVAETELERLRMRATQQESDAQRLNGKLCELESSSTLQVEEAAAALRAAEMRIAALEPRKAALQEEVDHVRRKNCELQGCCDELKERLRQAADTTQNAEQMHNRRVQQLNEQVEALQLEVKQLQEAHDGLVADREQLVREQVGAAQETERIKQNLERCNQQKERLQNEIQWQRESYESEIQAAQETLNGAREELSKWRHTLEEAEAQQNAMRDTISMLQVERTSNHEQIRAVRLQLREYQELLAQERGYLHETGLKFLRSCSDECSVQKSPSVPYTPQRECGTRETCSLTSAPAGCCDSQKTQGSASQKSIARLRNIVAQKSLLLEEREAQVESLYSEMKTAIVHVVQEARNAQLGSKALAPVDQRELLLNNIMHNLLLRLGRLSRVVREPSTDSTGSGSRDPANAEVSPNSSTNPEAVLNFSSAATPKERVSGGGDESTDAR
UniProt Q57XN7: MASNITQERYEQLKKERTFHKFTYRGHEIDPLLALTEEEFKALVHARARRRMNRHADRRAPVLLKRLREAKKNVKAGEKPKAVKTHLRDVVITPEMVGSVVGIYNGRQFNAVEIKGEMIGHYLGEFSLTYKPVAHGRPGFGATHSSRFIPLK
UniProt Q389L2: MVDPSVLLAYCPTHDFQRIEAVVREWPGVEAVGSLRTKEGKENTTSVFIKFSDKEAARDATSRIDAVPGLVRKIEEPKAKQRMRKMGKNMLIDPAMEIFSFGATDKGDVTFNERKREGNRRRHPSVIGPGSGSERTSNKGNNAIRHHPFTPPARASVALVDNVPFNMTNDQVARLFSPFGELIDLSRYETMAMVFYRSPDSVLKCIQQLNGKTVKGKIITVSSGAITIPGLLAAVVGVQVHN

What was measured:
Assay in all cases: affinity purification with mass spectrometry; eYFP-tagged bait captured from lysate of cryogenically ground T. brucei procyclic cells (100 mM KCl, 1 mM MgCl2, 50 mM Hepes pH 7.2, 5% glycerol; no detergent, no RNase added) on llama anti-GFP nanobody (LaG-16-G4S-LaG-2) Dynabeads; biological triplicates; enrichment against the eYFP-DRBD4 control, or pairwise between the two eIF4E and the two eIF4G baits
[1] = target: Eukaryotic translation initiation factor 4E-3 (Trypanosoma brucei (endogenous in procyclic Lister 427 cells)) (UniProt Q383A4)
[2] = target: Eukaryotic translation initiation factor 4E-4 (Trypanosoma brucei (endogenous in procyclic Lister 427 cells)) (UniProt Q585M4)
[3] = target: Eukaryotic translation initiation factor 4 gamma 3 (Trypanosoma brucei (endogenous in procyclic Lister 427 cells)) (UniProt Q57UX0)
[4] = target: Eukaryotic translation initiation factor 4G type 4 (Trypanosoma brucei (endogenous in procyclic Lister 427 cells)) (UniProt Q383M3)
[5] = target: Eukaryotic translation initiation factor 4G type 4 (Trypanosoma brucei (endogenous in procyclic Lister 427 cells)) (UniProt Q383M3); remark: listed apart in the source
[6] = target: Eukaryotic translation initiation factor 4E-3 (Trypanosoma brucei (endogenous in procyclic Lister 427 cells)) (UniProt Q383A4); remark: listed apart in the source
[7] = target: Eukaryotic translation initiation factor 4E-4 (Trypanosoma brucei (endogenous in procyclic Lister 427 cells)) (UniProt Q585M4); remark: listed apart in the source
[8] = target: Eukaryotic translation initiation factor 4 gamma 3 (Trypanosoma brucei (endogenous in procyclic Lister 427 cells)) (UniProt Q57UX0); remark: listed apart in the source

Molecule: Centrin arm-associated protein 1 (from UniProt Q38C95)
binding [1]: binds

Molecule: Eukaryotic translation initiation factor 4E-4 (from UniProt Q585M4)
binding [3]: binds | binding [4]: no binding | binding [1]: no binding

Molecule: Eukaryotic translation initiation factor 4G type 4 (from UniProt Q383M3)
binding [1]: binds | binding [2]: no binding

Molecule: Midasin (from UniProt Q4GZD0 1-4600)
binding [1]: binds

B1: Eukaryotic initiation factor 4A-1 (protein, UniProt Q38F76 1-404)
chain: MAQQGKVEPQDQDSFLDDQPGIRPIPSFDDMPLHQNLLRGIYSHGFEKPSSIQQRAIVPFTRGGDIIAQAQSGTGKTGAFSIGLLQRLDFRHNVLQGLVLSPTRELAMQTAEVITRIGEFLAEGSSSFCATFVGGTRVQDDYRKLQSGTIVAVGTPGRVVDVTKRGAMRTESLRVLVLDEADEMLSQGFAEQIYDIFRFLPKEIQVALFSATMPDDVLELTKKFMRDPTRILVKRESLTLEGIKQFFIAVEEEHKLDTLMDLYETVSIAQSVIFANTRRKVDWLASQLNSSNHTVSCMHSEMSKQEREKVMGTFRNGSSRVLVTTDLVARGIDVHHVNIVINFDLPTNKENYLHRIGRGGRYGRKGVAINFVTQKDVEVLREIESHYHTQIEELPVDFAAYLGE
binding [5]: no binding | binding [6]: no binding | binding [7]: binds

B4: 40S ribosomal protein S24 (protein, UniProt Q38AM9 1-137)
chain: MVFQKKKAEVTVRTSQFKVNKLLNRKQFVVEVNHPGWCGTVPAKLIRNRLASLYKVADENQISVFGFKTKFGGGKTTGFGLIYDDLAAMKRIEPNYRKARLGMGKKKLPARKSVKERRNRNKKIRGKAKGKMQTKKK
binding [8]: binds | binding [5]: binds

B5: CRK1 kinase (enzyme, UniProt P38973 1-301)
chain: MGSRYERLQKIGEGSYGVVFRARDVTTGTIVAVKRIRLEKEEEGVPCTAIREISILKELRHENIVRLLDVCHSEKRLTLVFECMEMDLKKYMDHVGGDLDAGTIQEFMRSLLSGVRFCHERNVLHRDLKPPNLLISREKELKLADFGLGRAFGIPVKKFTQEVVTLWYRSPDVLLGSTQYGTPVDIWSVGCIFAEMAIGAPLFTGKNDADQLLRIFQFLGTPNRQVWPSMDTYPNSSNMLSRPEFQQTLAATCEEQFQTNPAYAKLGPQGIDLLRWLLRYEPSERLTAAQALEHPYFSVEF
binding [8]: binds | binding [7]: binds

The remaining lines, values ahead:

binding [1]: binds
Molecule: 40S ribosomal protein S15 (from UniProt Q57XN7)

binding [1]: no binding | binding [2]: binds
Molecule: Eukaryotic translation initiation factor 4 gamma 3 (from UniProt Q57UX0)

binding [3]: binds | binding [4]: no binding | binding [1]: no binding | binding [2]: binds
Molecule: RNA-binding protein 23 (from UniProt Q389L2)

binding [5]: binds | binding [6]: binds
B2: ATP-dependent 6-phosphofructokinase (enzyme, UniProt O15648 1-487)
chain: MAVESRSRVTSKLVKAHRAMLNSVTQEDLKVDRLPGADYPNPSKKYSSRTEFRDKTDYIMYNPRPRDEPSSENPVSVSPLLCELAAARSRIHFNPTETTIGIVTCGGICPGLNDVIRSITLTGINVYNVKRVIGFRFGYWGLSKKGSQTAIELHRGRVTNIHHYGGTILGSSRGPQDPKEMVDTLERLGVNILFTVGGDGTQRGALVISQEAKRRGVDISVFGVPKTIDNDLSFSHRTFGFQTAVEKAVQAIRAAYAEAVSANYGVGVVKLMGRDSGFIAAQAAVASAQANICLVPENPISEQEVMSLLERRFCHSRSCVIIVAEGFGQDWGRGSGGYDASGNKKLIDIGVILTEKVKAFLKANKSRYPDSTVKYIDPSYMIRACPPSANDALFCATLATLAVHEAMAGATGCIIAMRHNNYILVPIKVATSVRRVLDLRGQLWRQVREITVDLGSDVRLARKLEIRRELEAINRNRDRLHEELAKL

binding [8]: binds | binding [5]: no binding | binding [6]: no binding | binding [7]: binds
B3: Polyadenylate-binding protein 1 (protein, UniProt Q38E63 1-566)
chain: MTIAAQGVPSGPSATKPLQVASLYVGDLDPAINEPQLVDIFKPYGTILNVRVCRDIITQRSLGYGYVNYDDVNSASKAMEELNFKRVGEKCIRIMWQQRDPALRYSGSGNIFVKNLKEEVDSRELSLIFKKFGEILSCKVMDDESGKSRGYGFVHFKDDDAAKAAIEKMNGDKEHADADKAALYVANFIRRNARLAALVANFTNVYIKQLLPTVDKDVIEKFFSKFGGITSAAICKDKNGRAFAFCNFEKHDDAVKAIEASHDQEVEGVTQPGEKLYVQRAQPRSERLIALRQKYMQCQSLGNNLYVRNFDAEFTEKDLNELFKEYGVIRSCRVMTDANGISRGFGFVSFENADQANAALREMNGRMLNGKPLVVNIAQRRDQRLTMLKLQLQQRLQMMMHHMHPPPFGMPGHPLQRRNARSGGRGNRPHPRQQQPQPQPEPQPPLATTVPPAAAHSVMFTAPSMGFSAVPRTPQASPAIAPDTPPLPPISAEDLQQMSVDEQRAALGDRLYIKVHELAPDHAPKITGMFLEMNPKEALALLSNPKLMHEKVTEALCVLKVHASSA
